Among all 400,000 compounds or so, about 13,000 (3.2%) were called active. The shares of active, inactive and inconclusive entries below differ from those in the screen. Calls come from the whole dose curve; as a rule, active = well fitted cell-killing curve with a large enough effect; inconclusive = small, poorly fitted or top-dose-only effect, or effect the other way; inactive = flat fitted curve, though single readings scatter. Potencies of inconclusive entries are doubtful fits and often do not repeat.
Experiment: qHTS assay for MDR1-selective chemotherapeutics: Primary screen using the drug-selected MDR subline cells KB-V1; note: nearly all actives have a fitted effect of over 60% in size
Conditions: KB-V1 MDR cells viability, CellTiter-Glo, 72 h; activity change, negative = cytotoxicity: at 46.1 µM (top of the series)
Method in brief: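 Drug-selected KB-V1 cells, grown in DMEM lacking phenol red with 10% FBS, receive compound titrations; after three days at 37 degrees C, surviving cell ATP is quantified by CellTiter-Glo luminescence and responses normalized and curve-fitted.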
% is set by controls: 0 for no effect and ±100 for the full control effect; potency is the fitted concentration of half-maximal effect.

SMILES | Potency | activity change, negative = cytotoxicity
FC(F)(F)c1ccc(N2CCN(Cc3ccc4c(c3)OCO4)CC2)nc1 | inconclusive: 18.4 µM [cytotoxic, single point] | 
Cc1occc1C(=O)Nc1cccc(Cl)c1Cl | inactive | 
COc1cc(Cl)c(C)cc1NC(=O)CCCN1C(=O)CCC1=O | inconclusive: 20.6 µM [cytotoxic, single point] | 
Cc1noc(NS(=O)(=O)c2ccc(NC(=O)CSc3nc4c(cc3C#N)CCCCC4)cc2)c1C | inactive | 
COCCSc1nnc(NC(=O)C2CCCCC2)s1 | inconclusive: 29.1 µM [cytotoxic, single point] | 
COc1cc(C)c(Cl)cc1S(=O)(=O)N1CCCC1 | inconclusive: 2.31 µM [cytotoxic, partial curve, poor fit] | 
CC1N(C)c2cc(NC(=O)c3cccs3)c(P(=O)(Nc3ccc([N+](=O)[O-])cc3)N3CCOCC3)cc2C1(C)C (stereo not drawn) | inactive | 
CCc1noc(C)c1C(=O)Nc1nc(-c2ccc(NC(C)=O)cc2)cs1 | inconclusive: 20.6 µM [cytotoxic, single point] | 
Cc1nn(-c2ccccc2)c(N)c1Sc1ccc([N+](=O)[O-])cc1 | inconclusive: 20.6 µM [cytotoxic, single point] | 
COc1ccc(S(=O)(=O)NCCOc2ccccc2)cc1OC | inconclusive: 29.1 µM [cytotoxic, single point] | 
Cc1[nH]c2ccccc2c1C(=O)CSC(=S)N1CCOCC1 | inconclusive: 23.1 µM [cytotoxic, single point] | 
Cc1cc(=O)[nH]c(SCCOc2cccc(C(F)(F)F)c2)n1 | inconclusive: 29.1 µM [cytotoxic, single point] | 
CCSc1nc2n(n1)C(c1cccc(F)c1)C1=C(CCCC1=O)N2 (stereo not drawn) | active: 13 µM | 
Clc1nc(NCc2ccco2)nc(N2CCCCC2)n1 | inactive | 
COc1ccc(N2CCN(C(=O)CSc3nc4ccccc4nc3Cc3ccc(Cl)cc3)CC2)cc1 | inactive | 
CC(C)Oc1cc(F)ccc1-c1cc(C(=O)NCc2ccccn2)[nH]n1 | inconclusive: 16.4 µM [cytotoxic, partial curve] | 
CCOc1ccc(OCc2ccc(C(=O)Nc3cccc(C)n3)o2)cc1 | inconclusive: 29.1 µM [cytotoxic, single point] | 
COc1ccc(OC)c(NS(=O)(=O)c2ccccc2)c1 | inactive | 
CC(C)N1CCc2c(sc(NC(=O)c3ccc(S(=O)(=O)N4CCCCC4C)cc3)c2C(N)=O)C1 (stereo not drawn) | inactive | 
Cc1ccc(-c2nc3ccccc3c(=O)n2N)cc1 | inactive | 
CCCC(=O)Nc1ccccc1-c1nnc(SCC)[nH]c1=O | inconclusive: 18.4 µM [rising, partial curve, poor fit] | 
COc1cc(/C=C2/SC(=S)N(CCC(=O)Nc3ccc(C(=O)O)cc3)C2=O)cc(OC)c1OC | inactive | 
COc1ccc(NC(=O)c2c(N)c(C(=O)c3ccc(OC)cc3)n3ccccc23)cc1 | inactive | 
COc1ccc(C2C(C#N)=C(N)Oc3cccc(O)c32)cc1 (stereo not drawn) | inactive | 
CCCCn1c(N)c(N(Cc2ccccc2OC)C(=O)C(C)Oc2cccc(Cl)c2)c(=O)[nH]c1=O (stereo not drawn) | inconclusive: 0.651 µM [rising, full curve, poor fit] | 

SMILES | Potency | activity change, negative = cytotoxicity
CCCNC(=O)c1cc(C2CCCN(C(=O)c3cc(F)ccc3C)C2)on1 (stereo not drawn) | inactive | 
Cc1cc(C(=O)N2CCc3c([nH]c4ccccc34)C2c2cccc(Cl)c2)nn1C (stereo not drawn) | inactive | 
Cc1cc(NC(=O)Cn2c(=O)c3c(ncn3CC(C)C)n(Cc3ccccc3)c2=O)no1 | inconclusive: 20.6 µM [cytotoxic, partial curve, poor fit] | 
CCOC(=O)c1c(-c2cccs2)csc1NC(=O)C(C)(C)C | active: 14.6 µM | 
COc1ccc(Cn2c(=O)[nH]c3cc(C(=O)N4CCN(Cc5ccccc5)CC4)ccc3c2=O)cc1 | active: 20.6 µM | 
Cc1ccc(OCC(=O)NCCNC(=O)c2ccncc2)cc1C | inactive | 
COc1nc(-c2ccccc2)c2cc(C)ccc2n1 | inconclusive: 14.6 µM [rising, partial curve, poor fit] | 
CC(C)c1ccc(NC2CCCN(C(=O)CCc3cn[nH]c3)C2)cc1 (stereo not drawn) | inconclusive: 29.1 µM [cytotoxic, single point] | 
CCOc1ccc(N(C)S(=O)(=O)c2ccc(-c3cc(C)no3)s2)cc1 | inconclusive: 29.1 µM [cytotoxic, single point] | 
COc1ccc(NS(=O)(=O)c2ccc3oc(SCc4ccc(F)cc4)nc3c2)cc1 | inconclusive: 16.4 µM [cytotoxic, partial curve] | 
CCOC(=O)N1N=C(c2ccccc2)CC1(O)C(C)(F)F (stereo not drawn) | inconclusive: 29.1 µM [rising, single point] | 
O=C(Nc1nnc([C@H]2C[C@H](O)[C@@H](CO)O2)s1)Nc1ccccc1C(F)(F)F | inactive | 
Nc1nc2c(nc(SCc3ccccc3Br)n2[C@@H]2O[C@H](CO)[C@@H](O)[C@H]2O)c(=O)[nH]1 | inconclusive: 32.6 µM [rising, single point] | 
O=C(O)CN1C(=O)NC2(CCCc3ccccc32)C1=O (stereo not drawn) | inconclusive: 29.1 µM [rising, partial curve, poor fit] | 
c1ccc(Oc2ccccn2)cc1 | inactive | 
CC(NC(=O)C1CCCN(C(=O)c2ccc(Cl)cc2)C1)c1cccc(C(F)(F)F)c1 (stereo not drawn) | inactive | 
CCCCn1c(N)c(C(=S)NC(=O)CC(C)C)c(=O)n(C)c1=O | inconclusive: 23.1 µM [cytotoxic, single point] | 
CCOC(=O)Cn1c(=O)n(CC2CCCO2)c2nc(-c3ccccc3Cl)nc(C(N)=O)c21 (stereo not drawn) | inconclusive: 2.31 µM [cytotoxic, partial curve, poor fit] | 
Cc1nc2ccc(NC(=O)Cc3ccccc3F)cc2s1 | inconclusive: 13 µM [cytotoxic, partial curve, poor fit] | 
CCc1nc2ccc(C(=O)NCc3cccs3)cn2c1N(CC)Cc1cccc(Br)c1 | inconclusive: 20.6 µM [cytotoxic, single point] | 
CCCCn1c(NCc2ccccn2)nc2ccccc21 | active: 13 µM | 
Cn1c(C(=O)N2CCC(C(=O)N3CCOCC3)CC2)cc2sccc21 | inactive | 
Clc1ccc(/C=C\c2nccc3c2[nH]c2ccccc23)cc1 | inconclusive: 16.4 µM [cytotoxic, single point] | 
CC1=C(C(=O)Nc2ccccc2C)C(c2cccs2)n2nc(SCc3cc(C)ccc3C)nc2N1 (stereo not drawn) | inconclusive: 29.1 µM [rising, single point] | 
Cc1cc(CCCCCCCCc2cc(C)cc(=O)o2)oc(=O)c1 | active: 7.31 µM | 

SMILES | Potency | activity change, negative = cytotoxicity
Cc1nn(-c2ccccc2)c(C)c1NC(=O)COC(=O)c1ccccc1 | inconclusive: 16.4 µM [rising, single point] | 
CCOc1ccc(N(CC)C(=O)c2noc3c2COc2ccc(C)cc2-3)cc1 | inconclusive: 20.6 µM [cytotoxic, partial curve] | 
O=C(NC1CCN(Cc2ccccc2)CC1)c1cccc(OC(F)F)c1 | inconclusive: 0.0052 µM [cytotoxic, full curve] | 
CCOc1ccccc1NC(=O)/C(C#N)=C/c1c(C)nn(-c2ccc(F)cc2)c1Cl | inactive | 
CC(C)NC(=O)N(C)C[C@H]1Oc2cc(C#Cc3ccc(F)cc3)ccc2S(=O)(=O)N([C@H](C)CO)C[C@H]1C | inactive | 
COc1cccc(-n2cc(CNC(=O)C3CCC(=O)N(C4CC4)C3)cn2)c1 (stereo not drawn) | inconclusive: 29.1 µM [rising, single point] | 
COCC(=O)Nc1nnc(Cc2ccc(OC)c(OC)c2)s1 | inconclusive: 14.6 µM [rising, partial curve, poor fit] | 
COc1ccc(NC(=S)N2CCN(C(=O)c3ccccc3)CC2)cc1 | inconclusive: 23.1 µM [cytotoxic, single point] | 
CC(=O)OCCC(C)C | inconclusive: 29.1 µM [cytotoxic, single point] | 
CCCCCCCCCCCCCCCC[n+]1cccc2ccccc21 | active: 23.1 µM | 
O=C(CCc1nc2ccccc2[nH]1)Nc1ccccc1 | inactive | 
C[C@@H]1CCCCO[C@H](CN(C)S(=O)(=O)c2ccccc2)[C@@H](C)CN([C@H](C)CO)C(=O)c2cc(NC(=O)Cc3ccccc3)ccc2O1 | inactive | 
CCCCNc1nc2ccccc2nc1NS(=O)(=O)c1ccc(F)cc1 | inconclusive: 32.6 µM [cytotoxic, partial curve, poor fit] | 
O=C(NCCc1c[nH]c2ccccc12)C(F)(F)F | inconclusive: 1.16 µM [rising, single point] | 
CCOc1ccccc1NC(=O)C1=C(C)Nc2ncnn2C1c1sccc1C (stereo not drawn) |  | inconclusive: 0%
Cc1ccc(OCCC(=O)NNC(=O)c2ccncc2)cc1 | inconclusive: 18.4 µM [rising, partial curve, poor fit] | 
COCC(=O)Nc1ccc2c(c1)[C@@H]1C[C@H](CC(=O)NCc3ccccc3)O[C@@H](CO)[C@@H]1O2 | inconclusive: 29.1 µM [rising, single point] | 
Cc1ccc(CNC(=O)c2c(-c3ccc(Br)cc3)noc2C)o1 | inactive | 
O=C(Cc1cccs1)Nc1nnc(CCc2ccccc2)s1 | active: 18.4 µM | 
COCCCNC(=O)C1CCCN(c2ncnc3onc(C)c23)C1 (stereo not drawn) | inactive | 
Cc1c(CCC(=O)NCc2ccc(F)cc2)c(=O)oc2cc(O)ccc12 | inactive | 
CCOC(=O)N1CCN(C(=O)c2cn(CC)c3ccc(S(=O)(=O)N4CCCCC4)cc3c2=O)CC1 | inconclusive: 18.4 µM [rising, single point] | 
O=S(=O)(NC1CCCCCCC1)c1ccccc1 | inconclusive: 20.6 µM [cytotoxic, single point] | 

Reformatted with tabs: five of the compounds above
SMILES	Potency	activity change, negative = cytotoxicity
CC(C)NC(=O)N(C)C[C@H]1Oc2cc(C#Cc3ccc(F)cc3)ccc2S(=O)(=O)N([C@H](C)CO)C[C@H]1C	inactive	
COc1cccc(-n2cc(CNC(=O)C3CCC(=O)N(C4CC4)C3)cn2)c1 (stereo not drawn)	inconclusive: 29.1 µM [rising, single point]	
COCC(=O)Nc1nnc(Cc2ccc(OC)c(OC)c2)s1	inconclusive: 14.6 µM [rising, partial curve, poor fit]	
COc1ccc(NC(=S)N2CCN(C(=O)c3ccccc3)CC2)cc1	inconclusive: 23.1 µM [cytotoxic, single point]	
CC(=O)OCCC(C)C	inconclusive: 29.1 µM [cytotoxic, single point]	

Reference: PubChem BioAssay AID1347076 (National Center for Advancing Translational Sciences (NCATS), 2019)
